# Values of other authors, collected in US20240307370A1, “SIGMA RECEPTOR LIGANDS FOR TREATING SARS-COV-2 INFECTION” (University of Florida Research Foundation, Incorporated, priority 2021, published 2024).
# pEC50: −log10 of the molar value.
# Tested on: SARS-CoV-2
# Settings: earlier report, cited from earlier work
smiles,measurement,setting,value
"CN(C)CCOC(c1ccccc1)c1ccccc1 [diphenhydramine, reference compound]",EC50 by plaque reduction assay (recently shown),,17.4 µg/mL
same,pEC50,read-out: EC50 by plaque reduction assay (recently shown),4.22
